Data from PubChem BioAssay AID1671190 (National Center for Advancing Translational Sciences (NCATS), 2021).
Values joined by “and” are separate entries in the source; they are usually repeats but may differ in a detail not shown here. Identical values can stand only once. Screen size: about 580,000 compounds; about 6,100 (1.1%) were called active. The shares of active, inactive and inconclusive entries below differ from those in the screen. The call rests on the fitted dose curve; in most records, active means well fitted inhibition curve with a large enough effect; inconclusive means small, poorly fitted or top-dose-only effect, or another doubt; inactive means no such curve, though single readings can be large or run the other way. Potencies beside an inconclusive call are fits to weak or partial responses and may not hold up.
Potency means the concentration at half of the fitted maximal effect.

Amino acid sequences for entries named in this document (tags omitted). A change or cut given only in a name is not applied to a line headed by its entry.
UniProt P18054: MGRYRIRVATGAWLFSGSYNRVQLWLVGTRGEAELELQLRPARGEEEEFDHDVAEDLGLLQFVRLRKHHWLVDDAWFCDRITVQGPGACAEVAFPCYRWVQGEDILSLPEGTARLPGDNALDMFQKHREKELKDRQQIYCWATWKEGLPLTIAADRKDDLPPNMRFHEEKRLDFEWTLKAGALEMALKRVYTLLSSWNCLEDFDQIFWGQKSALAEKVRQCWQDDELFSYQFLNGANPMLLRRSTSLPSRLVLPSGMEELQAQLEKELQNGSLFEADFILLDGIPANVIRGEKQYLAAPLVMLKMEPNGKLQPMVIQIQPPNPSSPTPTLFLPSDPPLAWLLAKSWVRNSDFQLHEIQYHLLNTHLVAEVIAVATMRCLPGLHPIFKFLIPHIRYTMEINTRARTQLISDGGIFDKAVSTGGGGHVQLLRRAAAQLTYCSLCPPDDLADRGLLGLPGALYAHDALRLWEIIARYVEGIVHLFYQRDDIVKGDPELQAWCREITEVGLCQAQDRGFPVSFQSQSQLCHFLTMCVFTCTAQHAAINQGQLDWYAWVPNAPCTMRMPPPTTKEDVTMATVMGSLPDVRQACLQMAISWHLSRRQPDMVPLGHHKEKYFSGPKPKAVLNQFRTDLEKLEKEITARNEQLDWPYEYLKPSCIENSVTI

Each molecule was assayed against Polyunsaturated fatty acid lipoxygenase ALOX12 (Homo sapiens) (UniProt P18054) (assay: Primary qHTS assay for inhibitors of human arachidonate 12S-lipoxygenase (ALOX12): Round 2). Conditions: purified 12hLO, xylenol orange hydroperoxide absorbance; series mostly up to 108 µM.
How it was run: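 Purified human 12hLO (150 nM final) in 25 mM Hepes, 0.01% Triton X-100, pH 7.0 was preincubated 15 min at room temperature with compound. Then 40 uM arachidonic acid was added, 30 min. Hydroperoxide was read by Fe-XO absorbance ratio 573/405 nm.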
In the case of `COc1ccccc1-c1cccc2[nH]c3c(c12)CCN1C(=O)[C@H]2[C@H](C)ON(C)[C@H]2C[C@@H]31`, the Potency is reported as inconclusive: 79.4 µM [inhibitor, partial curve, poor fit]. With `CC1CCN(c2oc(-c3ccc([N+](=O)[O-])cc3)nc2C#N)CC1` the Potency was “inactive”. `CC(=O)c1ccccc1OCC(O)CN1CCN(c2ccccn2)CC1` (stereo not drawn) was tested, and the Potency was inconclusive: 44.7 µM [inhibitor, partial curve, poor fit]. With `O=[N+]([O-])c1cccnc1Oc1cc(Cl)c(Cl)cc1Cl` the Potency was “inactive”. In the case of `O=C(NCCN1CCOCC1)c1cccc2c1C(=O)c1ccc(N3CCCC3)cc1S2(=O)=O`, the Potency is reported as “inactive”. With `Cn1cccc1/C=C(\C#N)c1ccccc1` the Potency was inconclusive: 89.1 µM [inhibitor, partial curve, poor fit]. `Cc1ccc(/C(O)=C/C(=O)C(=O)NNC(=O)C(O)(c2ccccc2)c2ccccc2)cc1` was tested, and the Potency was inconclusive: 11.2 µM [inhibitor, full curve, poor fit]. `Cc1cc(C(=O)NCc2ccc(C)o2)c2cccc(-c3ccccc3)c2n1` was tested, and the Potency was inconclusive: 17.8 µM [inhibitor, partial curve, poor fit]. `CC(C)(C)OC(=O)[C@H](Cc1ccccc1)NC(=O)c1nc[nH]c1C(=O)N[C@@H](CCCCN)C(=O)OC(C)(C)C` was tested, and the Potency was “inactive”. For `O=C(Cn1c(=O)n(-c2ccc(Cl)cc2)c(=O)c2c3c(sc21)CCC3)c1ccc(F)cc1`, the Potency was inconclusive: 35.5 µM [inhibitor, full curve, poor fit]. For `COc1ccc(OC)c(C2C(C#N)=C(N)Oc3cc(O)ccc32)c1` (stereo not drawn), the Potency was inconclusive: 100 µM [inhibitor, partial curve, poor fit]. In the case of `CCN1CCSc2ccc(C(=O)NCc3cccc(F)c3)cc21`, the Potency is reported as “inactive”. With `Fc1ccc(Nc2nc3nonc3nc2Nc2cccc(C(F)(F)F)c2)cc1` the Potency was inconclusive: 7.08 µM [inhibitor, full curve, poor fit]. `Cc1ccc(OC(C)C(=O)N2CC(=O)Nc3ccccc32)cc1` (stereo not drawn) was tested, and the Potency was “inactive”. For `O=C(/C=C/c1ccco1)NC(=S)Nc1ccccc1N1CCOCC1`, the Potency was inconclusive: 44.7 µM [inhibitor, partial curve, poor fit]. For `COc1ccccc1N1CCN(C(=O)CSc2nc3ccccc3nc2Cc2ccc(F)cc2)CC1`, the Potency was inconclusive: 100 µM [inhibitor, partial curve, poor fit]. `COc1ccccc1Cn1c(CNS(=O)(=O)c2ccc3c(c2)CCCC3)nc2cccnc21` was tested, and the Potency was “inactive”. In the case of `O=C1C2C(c3ccccc3)C=CC(c3ccccc3)C2C(=O)N1c1ccccn1` (stereo not drawn), the Potency is reported as inconclusive: 50.1 µM [inhibitor, partial curve]. `NC(=O)C1(c2nc(C3CCOC3)nn2-c2cccc3cccnc23)CC1` (stereo not drawn) was tested, and the Potency was “inactive”. For `CCOC(=O)C1(CCOc2ccccc2)CCN(Cc2ccc(O)c(OCC)c2)CC1`, the Potency was inconclusive: 100 µM [inhibitor, single point]. With `COc1cc(CN2CCC(C(=O)NCC(C)(C)CN(C)C)CC2)ccc1OCc1ccccc1` the Potency was inconclusive: 0.398 µM [inhibitor, full curve]. For `Clc1ccc(Nc2cnc3ccc(-c4ccccc4)nn23)nc1`, the Potency was inconclusive: 79.4 µM [inhibitor, partial curve, poor fit]. In the case of `CC(C)[C@H](NC(=O)C1CCCC1)c1nc2ccccc2[nH]1`, the Potency is reported as “inactive”. With `O=C(NNc1nc2ccccc2s1)Nc1ccc(F)cc1` the Potency was inconclusive: 3.98 µM [inhibitor, full curve, poor fit]. In the case of `Cc1c(C(=O)Oc2ccc(-c3cnc4ccccc4n3)cc2)cccc1[N+](=O)[O-]`, the Potency is reported as “inactive”. `Cc1cc(NS(=O)(=O)c2ccc(NC(=S)NC(=O)c3cccc(S(=O)(=O)N(C)C)c3)cc2)no1` was tested, and the Potency was inconclusive: 44.7 µM [inhibitor, partial curve, poor fit]. In the case of `Cc1ccc(/C=[N+](\[O-])c2ccc(N(C)C)cc2)c2nsnc12`, the Potency is reported as inconclusive: 79.4 µM [inhibitor, partial curve, poor fit]. In the case of `Fc1ccc(Oc2nc(-c3ccccn3)nc3ccccc23)cc1`, the Potency is reported as inconclusive: 7.94 µM [inhibitor, partial curve, poor fit]. `Cc1nc2sccn2c(=O)c1S(=O)(=O)Nc1ccc(N2CCN(S(C)(=O)=O)CC2)cc1` was tested, and the Potency was inconclusive: 112 µM [inhibitor, partial curve, poor fit] and inconclusive: 100 µM [inhibitor, partial curve, poor fit]. `Cc1cccc(C2Nc3ccccc3C(=O)N2c2ccc(F)cc2)n1` (stereo not drawn) was tested, and the Potency was “inactive”. In the case of `S=C(N/N=C1\CCCCC1C1CCCCC1)Nc1ccccc1` (stereo not drawn), the Potency is reported as active: 15.8 µM. `Cc1cccc(Nc2nc(-c3ccccc3)c3cc(C)ccc3n2)c1` was tested, and the Potency was inconclusive: 70.8 µM [inhibitor, partial curve, poor fit]. For `O=C(O)CNC(=O)CCn1ccc2ccc(F)cc21`, the Potency was inconclusive: 20 µM [inhibitor, full curve, poor fit]. For `COc1ccc(C)cc1NC(=O)Cn1c(=O)oc2ccccc21`, the Potency was “inactive”. With `CC(=O)N=c1c(C#N)cc2c(=O)n3cccc(C)c3nc2n1Cc1ccco1` the Potency was “inactive”. `Cc1ccc(-n2ncc3c(N4CCC5(CC4)OCCO5)ncnc32)c(C)c1` was tested, and the Potency was inconclusive: 100 µM [inhibitor, single point]. With `Cc1nc(-c2cccc(NS(=O)(=O)c3cccc4ccccc34)c2)cs1` the Potency was inconclusive: 31.6 µM [inhibitor, partial curve, poor fit]. `Cc1ccccc1NCc1cccn1-c1nnc(N2CCOCC2)s1` was tested, and the Potency was inconclusive: 141 µM [inhibitor, partial curve, poor fit]. With `CC(C)OCCCn1c(SCC(=O)Nc2ccc(F)cc2)nc2c(sc3ccccc32)c1=O` the Potency was inconclusive: 141 µM [inhibitor, partial curve, poor fit]. With `NCCCC(N)(C(=O)O)C(F)F` (stereo not drawn) the Potency was “inactive”. `CC(C)CCn1c(SCC(=O)Nc2ccccc2C(F)(F)F)nc2nccnc2c1=O` was tested, and the Potency was inconclusive: 31.6 µM [inhibitor, full curve, poor fit]. For `CSCCC(NC(=O)c1ccc(Cl)cc1)C(=O)OCC(=O)Nc1cc(Cl)ccc1C` (stereo not drawn), the Potency was inconclusive: 56.2 µM [inhibitor, partial curve, poor fit]. With `CC(C)CNC(=O)N1CCCCCCN(C)C(=O)[C@@H]2CCC[C@@H]21` the Potency was “inactive”. With `O=C1C2CC=C(Cl)CC2C(=O)N1CCCCCCN1C(=O)C2CC=C(Cl)CC2C1=O` (stereo not drawn) the Potency was inconclusive: 7.08 µM [inhibitor, full curve]. With `CCCCCCn1c(NC)nc2c1c(=O)n(C)c(=O)n2C` the Potency was inconclusive: 0.126 µM [inhibitor, full curve, poor fit]. `COc1ccccc1NC(=O)NN1CCCCC1` was tested, and the Potency was inconclusive: 44.7 µM [inhibitor, partial curve, poor fit]. `Cc1ccc(NC2(c3nnnn3-c3ccc(C)cc3)CCCC2)cc1` was tested, and the Potency was “inactive”. With `O=C(C[C@H]1C/C=C\CC[C@H](Cc2ccc(F)cc2)C(=O)O[C@@H](c2ccccc2)CNC1=O)N[C@H](CO)Cc1ccccc1` the Potency was inconclusive: 70.8 µM [inhibitor, partial curve, poor fit]. `COc1cc2ncc(S(=O)(=O)c3ccccc3)c(N3CCCC(C)C3)c2cc1OC` (stereo not drawn) was tested, and the Potency was inconclusive: 50.1 µM [inhibitor, partial curve, poor fit]. In the case of `O=C(NC(=S)N1CCN(c2c(Cl)cccc2[N+](=O)[O-])CC1)c1cccs1`, the Potency is reported as “inactive”. In the case of `CCCCCCCCCCCC1=C(O)C(=O)C=C(O)C1=O`, the Potency is reported as inconclusive: 2.24 µM [inhibitor, full curve, poor fit] and active: 3.43 µM. In the case of `CC(C)=C1C2CCC1C1C(=O)N(c3ccc4c(c3)OCO4)C(=O)C21` (stereo not drawn), the Potency is reported as “inactive”. For `Cc1cc(=O)oc2cc3occ(-c4ccc(-c5ccccc5)cc4)c3cc12`, the Potency was “inactive”. With `CN(C)CC1CC/C(=C\c2ccc(O)cc2)C1=O` (stereo not drawn) the Potency was inconclusive: 35.5 µM [inhibitor, partial curve]. With `O=C(NCc1ccco1)c1n[nH]c(=O)c2ccccc12` the Potency was inconclusive: 112 µM [inhibitor, partial curve, poor fit]. In the case of `COc1cc(/C=C(\C#N)C(=O)N2CCc3ccccc32)ccc1O`, the Potency is reported as inconclusive: 141 µM [inhibitor, single point]. `C#CCOCCOCCOCCNc1nc(N2CCN(C(=O)Cn3cc(CCO)nn3)CC2)nc(N2CCN(C(=O)[C@H]([C@@H](C)CC)n3cc(CCCCN)nn3)CC2)n1` was tested, and the Potency was inconclusive: 7.08 µM [inhibitor, full curve, poor fit]. With `CCCCCCC12Cc3cc(OC)c(OC)cc3C(O1)C1=C(O2)C(C)(C)CCC1=O` (stereo not drawn) the Potency was inconclusive: 70.8 µM [inhibitor, partial curve, poor fit]. `CC1CCN(C(=O)CSc2nc(-c3ccc(C(C)C)cc3)no2)CC1` was tested, and the Potency was “inactive”. For `Cc1ccccc1C(=O)NC(=S)NCc1ccccc1`, the Potency was inconclusive: 79.4 µM [inhibitor, partial curve, poor fit]. For `CC1=C(O)C(=O)C(C2=C(O)C(=O)C(C)=C(O)C2=O)=C(O)C1=O`, the Potency was inconclusive: 79.4 µM [inhibitor, partial curve, poor fit]. In the case of `COc1ccc(-c2cc3ccccc3n2CC(O)CNCCO)cc1` (stereo not drawn), the Potency is reported as inconclusive: 0.282 µM [inhibitor, full curve, poor fit]. In the case of `C/C(=N\Nc1ccc(Cl)cc1)c1c(O)cc(C)oc1=O`, the Potency is reported as inconclusive: 14.1 µM [inhibitor, full curve, poor fit].
